# Source: PubChem BioAssay AID2778 (National Center for Advancing Translational Sciences (NCATS), 2010)
# By UniProt entry, the sequences of proteins in these tests, tags left out.
# UniProt O00255, whole entry, looked up: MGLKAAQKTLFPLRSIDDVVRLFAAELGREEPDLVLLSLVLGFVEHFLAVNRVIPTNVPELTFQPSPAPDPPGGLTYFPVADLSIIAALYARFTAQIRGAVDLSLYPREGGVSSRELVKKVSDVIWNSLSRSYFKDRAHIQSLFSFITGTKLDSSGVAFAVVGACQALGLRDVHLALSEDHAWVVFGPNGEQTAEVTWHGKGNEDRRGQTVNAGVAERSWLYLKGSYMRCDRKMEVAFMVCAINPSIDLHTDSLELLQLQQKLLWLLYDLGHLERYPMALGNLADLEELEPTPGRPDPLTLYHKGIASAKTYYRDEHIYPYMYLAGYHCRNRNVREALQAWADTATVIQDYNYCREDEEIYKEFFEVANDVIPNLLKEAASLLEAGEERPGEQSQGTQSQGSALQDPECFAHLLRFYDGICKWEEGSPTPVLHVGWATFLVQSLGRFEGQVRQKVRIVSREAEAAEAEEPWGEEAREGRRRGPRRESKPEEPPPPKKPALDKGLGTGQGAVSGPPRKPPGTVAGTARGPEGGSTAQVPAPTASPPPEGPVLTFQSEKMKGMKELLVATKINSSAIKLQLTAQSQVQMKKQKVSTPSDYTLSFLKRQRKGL
# This list was built around the results that the source calls inconclusive (neither active nor inactive); the mix of calls is not that of the screen. A potency beside an inconclusive call is a rough fit, not a confirmed value. Activity calls are given as the source filed them. Calls follow the shape of the dose curve; as a rule, active = well fitted inhibition curve with a large enough effect; inconclusive = small, poorly fitted or top-dose-only effect, or effect the other way; inactive = flat fitted curve, though single readings scatter. Positions of bridges follow the written chain, without caps; N, C: chain ends. Non-standard residues stand in square brackets, D forms with d. Residues, ends and D or L forms follow the SMILES beside them. ξ: configuration not given here. *: point of attachment. Octanoyl(6-Me) = CCC(C)CCCCC(=O)*; ξThr(3R) = C[C@@H](O)C(N)C(=O)O; dDab = NCC[C@@H](N)C(=O)O; Dab = NCC[C@H](N)C(=O)O
# Target: Menin (Homo sapiens) (UniProt O00255)
# Assay: Confirmation of Inhibitors Targeting the Menin-MLL Interaction in MLL Related Leukemias: Confirmation in an HTRF (commercial TR-FRET) Assay using His-tagged menin and biotin-labeled MLL peptide
# Procedure, shortened: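 HTRF: His6-menin (200 nM) and biotin-MLL-w.t. peptide (80 nM) preincubated 15 min, then compounds 1 hr at ambient, before Eu-cryptate anti-His (3.5 nM) and streptavidin-XL665 (10 nM) for 1 h; 50 mM Tris-HCl pH 7.5, 50 mM NaCl, 1 mM DTT, BSA.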
# Potency is read from the fitted curve at half-maximal effect.
row,Compound,Potency
1,CCOC(=O)c1sc(NC(=O)Nc2ccc(Cl)cc2)nc1C,"inconclusive: 70.7 µM [inhibitor, partial curve]"
2,COc1ccccc1CC(=O)Nc1ccc(-c2noc(COc3ccc(Br)cc3)n2)cc1,"inconclusive: 398 µM [inhibitor, partial curve]"
3,CN(C)[C@H]1C(=O)C(C(=O)NCN2CCCC2)=C(O)[C@]2(O)C(=O)C3=C(O)c4c(O)cccc4[C@](C)(O)[C@H]3C[C@H]12,active: 70.7 µM
4,CCNc1ccccc1CP(=O)(c1ccccc1)c1ccccc1O (configuration not stated),active: 89.1 µM
5,Cc1cccc(NC(=S)NC(NC(=O)OCc2ccccc2)C(Cl)(Cl)Cl)c1 (configuration not stated),inactive
6,NS(=O)(=O)c1ccc(NC(=O)c2ccc(S(=O)(=O)N3CCc4ccccc43)cc2)cc1,"inconclusive: 79.4 µM [inhibitor, partial curve]"
7,Cc1cccc(NC(=O)CSc2nc3ccc(NC(=O)CSc4nnnn4-c4ccccc4)cc3s2)c1C,"inconclusive: 50.1 µM [inhibitor, partial curve]"
8,CCC(C)CCCCC(=O)N[C@@H](CCN)C(=O)N[C@H](C(=O)N[C@@H](CCN)C(=O)N[C@H]1CCNC(=O)C([C@@H](C)O)NC(=O)[C@@H](CCN)NC(=O)[C@H](CCN)NC(=O)[C@H](CC(C)C)NC(=O)[C@@H](CC(C)C)NC(=O)[C@H](CCN)NC1=O)[C@@H](C)O (stereo partly drawn) ({Octanoyl(6-Me)}-[Dab]T[Dab][Dab][Dab][dL]L[Dab][dDab][ξThr(3R)]; lactam 4-C),inactive
9,Cc1ccc(NC(=O)C(OC(=O)c2ccc(C=O)cc2)c2ccccc2)cc1Cl (configuration not stated),"inconclusive: 79.4 µM [inhibitor, partial curve]"
10,CCc1cc2c(N3CCN(c4nnc(CC)s4)CC3)ncnc2s1,active: 25.1 µM
11,CC(=O)N1c2ccccc2C2(O)N=C(C)SC12 (configuration not stated),"inconclusive: 79.4 µM [activator, full curve]"
12,N=C1c2ccccc2CN1c1ccc(N2CCOCC2)c(S(=O)(=O)Nc2ccc(Cl)cc2)c1,active: 79.4 µM
13,O=C(Nc1ccc(Oc2ccc3c(c2)C(=O)N(c2ccc(O)cc2)C3=O)cc1)c1cccs1,"inconclusive: 79.4 µM [inhibitor, partial curve]"
14,O=C1Cc2ccccc2Sc2c(OCCN3CCCCC3)cccc21,inactive
15,O=C(C[N+]12CC[N+](CC(=O)c3ccc(F)cc3)(CC1)CC2)c1ccc(F)cc1,"inconclusive: 79.4 µM [inhibitor, partial curve]"
16,CCc1cc2c(N3CCN(C(=O)c4ccco4)CC3)ncnc2s1,active: 100 µM
17,COC1=C(Nc2ccccc2)C(=O)c2ccccc2C1=O,"inconclusive: 141 µM [activator, partial curve]"
18,CCOC(=O)/C=c1\s/c(=C\c2ccc(-c3ccccc3)cc2)c(=O)n1CC(=O)NCc1ccc2c(c1)OCO2,"inconclusive: 63.1 µM [inhibitor, partial curve]"
19,CCOC(=O)c1cnc2ccc(OCC)cc2c1N1CCN(C)CC1,"inconclusive: 70.8 µM [inhibitor, partial curve]"
20,COc1ccc(C)cc1N(C(=O)c1snc(C(N)=O)c1N)C(C(=O)NC1CCCC1)c1ccc(F)cc1 (configuration not stated),inactive
21,Cc1cc(N2CCOCC2)nc2ccc(Cl)cc12,"inconclusive: 631 µM [inhibitor, single point]"
22,CCn1cnc2c1c(=O)n(CC(=O)O)c(=O)n2Cc1ccccc1,inactive
23,COC(=O)[C@H](C)NC(=O)c1cc2c(cn1)[nH]c1ccccc12,active: 50.1 µM
24,O=[N+]([O-])c1ccc(O)c(Nc2c([N+](=O)[O-])ccc3nonc23)c1,"inconclusive: 126 µM [activator, partial curve]"
25,Cc1ccc(NC(=O)CN2C(=O)S/C(=C\c3ccc(C(=O)O)cc3)C2=O)cc1,"inconclusive: 99.9 µM [inhibitor, single point]"
26,CC1(C)CN=C(N2CCN(c3ncnc4sc5c(c34)CCCC5)CC2)S1,active: 28.2 µM
27,O=C(Nc1cc(Br)ccc1O)c1cc(-c2ccco2)on1,"inconclusive: 79.4 µM [inhibitor, partial curve]"

# In the list so far, two contain an aryl methoxy group:
row,Compound,Potency
2,COc1ccccc1CC(=O)Nc1ccc(-c2noc(COc3ccc(Br)cc3)n2)cc1,"inconclusive: 398 µM [inhibitor, partial curve]"
20,COc1ccc(C)cc1N(C(=O)c1snc(C(N)=O)c1N)C(C(=O)NC1CCCC1)c1ccc(F)cc1 (configuration not stated),inactive
